For 2 molecules, binding results are on record in PMC4383579.

By UniProt entry, the sequences of proteins in these tests, tags left out. Where a name states a change or a piece, a line headed by the entry shows the natural chain unless it says otherwise.
UniProt P56757: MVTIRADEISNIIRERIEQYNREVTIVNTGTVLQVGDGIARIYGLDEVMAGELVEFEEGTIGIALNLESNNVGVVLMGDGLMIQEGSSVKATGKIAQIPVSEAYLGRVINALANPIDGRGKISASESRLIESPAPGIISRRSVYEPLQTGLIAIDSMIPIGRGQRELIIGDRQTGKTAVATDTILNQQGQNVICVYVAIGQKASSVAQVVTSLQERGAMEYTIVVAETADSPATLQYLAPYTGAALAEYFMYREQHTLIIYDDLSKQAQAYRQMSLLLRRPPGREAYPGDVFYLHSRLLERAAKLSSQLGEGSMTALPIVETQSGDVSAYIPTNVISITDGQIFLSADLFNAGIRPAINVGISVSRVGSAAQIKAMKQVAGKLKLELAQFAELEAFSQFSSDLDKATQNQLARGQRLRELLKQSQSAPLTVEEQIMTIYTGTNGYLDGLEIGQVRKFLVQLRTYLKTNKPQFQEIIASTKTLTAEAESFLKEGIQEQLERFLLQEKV
UniProt P19366: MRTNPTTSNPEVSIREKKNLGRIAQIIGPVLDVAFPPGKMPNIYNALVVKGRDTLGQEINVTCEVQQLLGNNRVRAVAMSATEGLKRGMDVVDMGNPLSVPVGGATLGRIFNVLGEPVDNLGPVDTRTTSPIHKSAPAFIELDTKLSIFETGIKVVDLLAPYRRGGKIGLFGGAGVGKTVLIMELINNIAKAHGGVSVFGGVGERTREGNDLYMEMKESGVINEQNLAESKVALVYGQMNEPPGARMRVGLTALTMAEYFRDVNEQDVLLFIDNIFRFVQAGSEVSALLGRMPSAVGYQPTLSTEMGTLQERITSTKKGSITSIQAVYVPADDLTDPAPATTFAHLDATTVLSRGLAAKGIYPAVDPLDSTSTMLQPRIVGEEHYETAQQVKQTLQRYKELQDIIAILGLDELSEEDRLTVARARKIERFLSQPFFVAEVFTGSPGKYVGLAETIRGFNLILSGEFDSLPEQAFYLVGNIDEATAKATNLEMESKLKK
UniProt Q01908: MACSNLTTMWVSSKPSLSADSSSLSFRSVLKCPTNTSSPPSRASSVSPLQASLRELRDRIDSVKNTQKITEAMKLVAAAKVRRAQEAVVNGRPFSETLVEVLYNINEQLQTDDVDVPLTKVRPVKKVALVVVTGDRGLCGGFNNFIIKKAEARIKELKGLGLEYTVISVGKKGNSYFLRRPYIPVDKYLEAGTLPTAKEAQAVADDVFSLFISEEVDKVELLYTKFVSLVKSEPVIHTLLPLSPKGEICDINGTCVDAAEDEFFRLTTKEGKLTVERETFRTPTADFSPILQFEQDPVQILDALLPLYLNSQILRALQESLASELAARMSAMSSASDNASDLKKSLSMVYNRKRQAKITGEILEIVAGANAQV
UniProt Q9SSS9: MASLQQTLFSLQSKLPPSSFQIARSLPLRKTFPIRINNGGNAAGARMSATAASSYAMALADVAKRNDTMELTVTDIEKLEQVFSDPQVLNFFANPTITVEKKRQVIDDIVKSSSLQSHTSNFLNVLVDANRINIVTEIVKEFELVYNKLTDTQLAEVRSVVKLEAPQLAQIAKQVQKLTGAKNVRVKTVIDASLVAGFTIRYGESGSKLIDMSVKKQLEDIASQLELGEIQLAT
UniProt P09468: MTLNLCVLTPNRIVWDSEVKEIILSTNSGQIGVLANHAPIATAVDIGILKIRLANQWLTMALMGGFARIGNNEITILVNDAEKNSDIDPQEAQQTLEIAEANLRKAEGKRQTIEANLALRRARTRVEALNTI

No constants are given. Whether binding was seen depends on the method and setting. Some results given as binding are weak or reduced against the parent protein; the word gives no strength.

In assay [1] the target is T1, CF1 sub-complex of chloroplast ATP synthase (CF1-containing complex of ~300 kDa on BN-PAGE) (Arabidopsis thaliana (endogenous in thylakoids)) (UniProt P56757+P19366+Q01908+Q9SSS9+P09468). The assay is described as follows: native gel or EMSA; BN-PAGE (5–13.5% gradient, 4°C) of thylakoid membranes solubilised with n-dodecyl β-D maltoside; co-migration read by immunoblots with antibodies against D1, CF1 and CGL160.

Assay [2] concerns the target T1, CF1 sub-complex of chloroplast ATP synthase (CF1-containing complex of ~300 kDa on BN-PAGE) (Arabidopsis thaliana (endogenous in thylakoids)). The assay is described as follows: native gel or EMSA; 2D BN/SDS-PAGE: BN-PAGE lanes of solubilised thylakoids denatured and run on SDS-PAGE (12%, 6 M urea); co-migration read by immunoblots for CGL160 and individual ATP synthase subunits.

Assay [3] has as its target T2, AtpI, CF0 subunit a of chloroplast ATP synthase (Arabidopsis thaliana (endogenous in thylakoids)), P56758.
T2 chain: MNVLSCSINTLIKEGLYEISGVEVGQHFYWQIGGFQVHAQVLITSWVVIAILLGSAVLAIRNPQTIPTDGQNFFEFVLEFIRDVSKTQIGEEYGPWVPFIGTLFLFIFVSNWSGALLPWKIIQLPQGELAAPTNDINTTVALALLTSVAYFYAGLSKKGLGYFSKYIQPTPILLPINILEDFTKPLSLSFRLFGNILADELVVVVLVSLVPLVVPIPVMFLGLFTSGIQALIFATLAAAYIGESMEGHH
The description is as above. The following applies: remark: other sources report otherwise.

B1: CGL160 (Conserved Green Lineage 160), Arabidopsis thaliana (protein, UniProt O82279 47-350)
chain: GEYGGPPTTTKLRKYWGGEKEDPITSTDLIWNRDFMDQMKKLFDDPNDSSLDPSPSKEKSSGFLSFSRVMSLDSMDVDLSKELASSSKSVVKNRLDTSKSEAKKQMSKAIVSPKWKLAPTRREQEKWDRATKAATGGSDVMFRELRRPRGDPEVQAAKDREQYFKLKNKIQVLTLGIGGVGLVSAYISYTPEIALSFGAGLLGSLAYMRMLGNSVDAMADGARGVAKGAANQPRLLVPVVLVMIFNRWNAILVPEYGFMHLELIPMLVGFFTYKIATFFQAIEEAISITTQKPESISPDTQASD
For the molecule B1, the binding entry in assay [1] and in assay [2] was “binds” throughout.

B2: CGL160 (Conserved Green Lineage 160), Arabidopsis thaliana, O82279 47-350 (protein)
chain: B1 chain
With B2, in assay [3], the binding entry is reported as “no binding”.
